Literature values, collected in publication PMC5686171 (Scientific Reports, 2017).

System: α1T206C in α1β2γ2
Conditions: ref [12],[27]; cited from earlier work

For `NCCCC(=O)O` [GABA, γ-Aminobutyric acid], the “Increase in EC50 GABA” value is listed as “(5-fold increase in EC50 GABA)”.
